This is one part of the list. Most values lie at the level of the controls, where differences are scatter.
What follows are targets tested with CN[C@@H]1C[C@H]2O[C@@](C)([C@@H]1OC)n1c3ccccc3c3c4c(c5c6ccccc6n2c5c31)C(=O)NC4 [staurosporine] (assay: log2 fold change of tryptic peptide abundance, ligand vs vehicle (limited proteolysis) (log2 ratio); higher = more trypsin-susceptible (destabilized)). Conditions: ligand concentration: 20 uM; sample: K562 cleared lysate; digestion: 4 min, 22 C (HT-PELSA RT4min, Orbitrap Astral).

Amino acid sequences for entries named in this document (tags omitted). A change or cut given only in a name is not applied to a line headed by its entry.
UniProt P48681: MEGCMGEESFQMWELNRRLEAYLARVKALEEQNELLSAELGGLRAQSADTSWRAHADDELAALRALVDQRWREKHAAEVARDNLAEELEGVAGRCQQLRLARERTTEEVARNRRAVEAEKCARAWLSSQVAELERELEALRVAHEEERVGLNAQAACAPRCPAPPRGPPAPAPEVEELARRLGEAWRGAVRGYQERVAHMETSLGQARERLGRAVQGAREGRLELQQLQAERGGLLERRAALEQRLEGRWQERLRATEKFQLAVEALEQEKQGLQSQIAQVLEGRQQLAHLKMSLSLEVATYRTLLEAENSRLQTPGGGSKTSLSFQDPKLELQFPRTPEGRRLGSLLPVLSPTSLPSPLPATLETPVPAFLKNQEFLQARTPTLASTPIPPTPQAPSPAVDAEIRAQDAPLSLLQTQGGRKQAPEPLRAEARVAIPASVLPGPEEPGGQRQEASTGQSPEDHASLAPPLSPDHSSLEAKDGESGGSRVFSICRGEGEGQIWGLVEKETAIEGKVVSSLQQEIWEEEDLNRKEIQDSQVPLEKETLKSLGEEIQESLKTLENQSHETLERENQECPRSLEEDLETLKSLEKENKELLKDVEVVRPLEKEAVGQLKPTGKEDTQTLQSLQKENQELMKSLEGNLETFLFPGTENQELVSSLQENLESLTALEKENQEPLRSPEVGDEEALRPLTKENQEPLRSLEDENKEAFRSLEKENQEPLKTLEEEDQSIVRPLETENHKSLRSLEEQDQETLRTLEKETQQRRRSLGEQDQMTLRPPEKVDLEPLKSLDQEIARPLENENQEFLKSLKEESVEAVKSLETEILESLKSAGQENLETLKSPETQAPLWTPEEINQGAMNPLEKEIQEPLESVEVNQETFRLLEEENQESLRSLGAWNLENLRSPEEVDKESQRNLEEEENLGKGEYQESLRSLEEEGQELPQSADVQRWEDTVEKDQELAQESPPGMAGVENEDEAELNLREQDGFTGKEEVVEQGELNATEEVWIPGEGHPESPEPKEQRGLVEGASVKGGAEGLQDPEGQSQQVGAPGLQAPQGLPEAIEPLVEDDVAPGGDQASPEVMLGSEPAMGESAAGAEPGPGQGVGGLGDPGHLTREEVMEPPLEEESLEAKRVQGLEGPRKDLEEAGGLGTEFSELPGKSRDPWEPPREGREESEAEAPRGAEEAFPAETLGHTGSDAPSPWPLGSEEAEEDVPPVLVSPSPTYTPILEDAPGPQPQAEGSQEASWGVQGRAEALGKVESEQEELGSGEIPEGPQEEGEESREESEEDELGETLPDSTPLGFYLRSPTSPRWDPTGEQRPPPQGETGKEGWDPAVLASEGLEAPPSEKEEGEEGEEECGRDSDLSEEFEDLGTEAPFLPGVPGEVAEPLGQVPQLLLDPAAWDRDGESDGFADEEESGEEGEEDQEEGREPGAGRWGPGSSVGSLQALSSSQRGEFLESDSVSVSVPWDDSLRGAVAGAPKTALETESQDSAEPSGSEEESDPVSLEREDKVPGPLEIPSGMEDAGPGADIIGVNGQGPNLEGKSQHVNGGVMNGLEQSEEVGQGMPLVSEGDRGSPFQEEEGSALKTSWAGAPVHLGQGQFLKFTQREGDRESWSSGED
UniProt P49454: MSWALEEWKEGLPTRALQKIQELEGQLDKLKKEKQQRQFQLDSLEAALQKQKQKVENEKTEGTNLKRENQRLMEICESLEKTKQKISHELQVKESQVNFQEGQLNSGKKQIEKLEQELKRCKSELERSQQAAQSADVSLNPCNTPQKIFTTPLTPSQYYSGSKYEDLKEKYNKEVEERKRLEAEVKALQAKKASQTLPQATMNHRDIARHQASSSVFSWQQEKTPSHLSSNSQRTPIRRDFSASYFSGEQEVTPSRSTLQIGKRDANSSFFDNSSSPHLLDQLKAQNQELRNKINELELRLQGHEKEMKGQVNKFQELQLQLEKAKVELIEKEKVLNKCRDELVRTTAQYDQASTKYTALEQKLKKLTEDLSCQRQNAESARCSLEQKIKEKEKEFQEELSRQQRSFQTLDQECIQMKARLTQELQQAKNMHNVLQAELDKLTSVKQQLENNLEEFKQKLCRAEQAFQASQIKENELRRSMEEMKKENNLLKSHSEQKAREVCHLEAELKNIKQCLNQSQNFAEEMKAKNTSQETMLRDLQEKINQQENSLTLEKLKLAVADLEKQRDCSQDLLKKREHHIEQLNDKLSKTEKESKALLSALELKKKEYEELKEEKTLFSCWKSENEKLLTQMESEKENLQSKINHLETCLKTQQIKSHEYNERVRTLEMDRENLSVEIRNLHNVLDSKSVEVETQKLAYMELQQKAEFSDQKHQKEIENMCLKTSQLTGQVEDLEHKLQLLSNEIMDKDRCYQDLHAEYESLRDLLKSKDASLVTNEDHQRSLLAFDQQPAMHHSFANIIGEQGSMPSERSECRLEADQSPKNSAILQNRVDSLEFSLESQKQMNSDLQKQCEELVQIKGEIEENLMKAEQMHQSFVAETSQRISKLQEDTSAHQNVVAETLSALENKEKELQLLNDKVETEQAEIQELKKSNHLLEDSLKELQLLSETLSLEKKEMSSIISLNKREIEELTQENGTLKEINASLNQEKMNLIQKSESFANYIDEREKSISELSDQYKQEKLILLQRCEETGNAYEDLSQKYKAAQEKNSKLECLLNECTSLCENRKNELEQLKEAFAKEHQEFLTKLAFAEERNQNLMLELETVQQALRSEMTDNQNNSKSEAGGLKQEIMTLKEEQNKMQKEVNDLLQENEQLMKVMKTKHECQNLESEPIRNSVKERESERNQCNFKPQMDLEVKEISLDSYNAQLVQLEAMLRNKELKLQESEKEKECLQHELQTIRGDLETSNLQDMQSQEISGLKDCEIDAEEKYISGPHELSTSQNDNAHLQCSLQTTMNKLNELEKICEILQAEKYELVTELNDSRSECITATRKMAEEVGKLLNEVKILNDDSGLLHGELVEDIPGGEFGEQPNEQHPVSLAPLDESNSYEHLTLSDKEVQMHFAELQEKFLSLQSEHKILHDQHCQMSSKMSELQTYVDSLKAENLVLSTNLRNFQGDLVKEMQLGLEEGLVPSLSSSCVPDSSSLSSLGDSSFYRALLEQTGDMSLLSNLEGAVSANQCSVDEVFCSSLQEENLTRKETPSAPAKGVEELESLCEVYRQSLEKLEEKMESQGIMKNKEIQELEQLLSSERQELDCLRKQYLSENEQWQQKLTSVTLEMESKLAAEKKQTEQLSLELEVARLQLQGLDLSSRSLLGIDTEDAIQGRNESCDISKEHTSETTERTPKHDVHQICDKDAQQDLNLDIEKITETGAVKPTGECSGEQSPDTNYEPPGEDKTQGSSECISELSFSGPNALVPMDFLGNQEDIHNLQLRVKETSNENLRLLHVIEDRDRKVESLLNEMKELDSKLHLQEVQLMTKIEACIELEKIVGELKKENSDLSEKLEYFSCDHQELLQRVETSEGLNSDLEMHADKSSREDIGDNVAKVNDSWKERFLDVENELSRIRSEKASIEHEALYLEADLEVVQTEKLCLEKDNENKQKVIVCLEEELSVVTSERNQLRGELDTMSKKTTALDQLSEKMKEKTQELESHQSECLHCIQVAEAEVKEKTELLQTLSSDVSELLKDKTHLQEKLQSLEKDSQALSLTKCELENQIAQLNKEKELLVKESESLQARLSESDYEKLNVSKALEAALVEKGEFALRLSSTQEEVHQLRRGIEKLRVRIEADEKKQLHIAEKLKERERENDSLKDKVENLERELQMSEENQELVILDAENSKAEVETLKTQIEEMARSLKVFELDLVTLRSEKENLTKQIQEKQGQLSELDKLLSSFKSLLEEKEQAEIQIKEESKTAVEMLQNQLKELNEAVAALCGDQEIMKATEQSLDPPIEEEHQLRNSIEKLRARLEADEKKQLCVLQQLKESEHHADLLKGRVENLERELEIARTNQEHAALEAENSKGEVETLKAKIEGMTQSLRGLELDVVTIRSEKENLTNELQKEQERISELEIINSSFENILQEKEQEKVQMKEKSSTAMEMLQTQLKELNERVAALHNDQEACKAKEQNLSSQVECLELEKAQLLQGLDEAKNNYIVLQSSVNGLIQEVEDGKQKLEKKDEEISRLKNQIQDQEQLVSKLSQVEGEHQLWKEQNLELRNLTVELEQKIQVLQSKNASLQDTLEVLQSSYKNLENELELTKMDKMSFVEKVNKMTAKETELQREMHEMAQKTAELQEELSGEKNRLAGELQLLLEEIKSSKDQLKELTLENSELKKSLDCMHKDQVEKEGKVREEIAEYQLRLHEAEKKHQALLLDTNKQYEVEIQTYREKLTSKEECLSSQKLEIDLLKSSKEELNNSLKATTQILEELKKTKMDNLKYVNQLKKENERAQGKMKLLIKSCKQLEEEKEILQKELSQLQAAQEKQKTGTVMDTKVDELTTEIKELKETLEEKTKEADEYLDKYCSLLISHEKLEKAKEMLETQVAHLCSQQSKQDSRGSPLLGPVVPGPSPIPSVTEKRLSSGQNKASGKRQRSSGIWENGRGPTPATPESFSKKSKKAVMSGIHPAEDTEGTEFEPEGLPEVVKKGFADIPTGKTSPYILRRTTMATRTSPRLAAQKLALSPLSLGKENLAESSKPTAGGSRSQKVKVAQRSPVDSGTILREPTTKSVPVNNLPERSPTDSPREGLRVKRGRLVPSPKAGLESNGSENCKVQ
UniProt P54278: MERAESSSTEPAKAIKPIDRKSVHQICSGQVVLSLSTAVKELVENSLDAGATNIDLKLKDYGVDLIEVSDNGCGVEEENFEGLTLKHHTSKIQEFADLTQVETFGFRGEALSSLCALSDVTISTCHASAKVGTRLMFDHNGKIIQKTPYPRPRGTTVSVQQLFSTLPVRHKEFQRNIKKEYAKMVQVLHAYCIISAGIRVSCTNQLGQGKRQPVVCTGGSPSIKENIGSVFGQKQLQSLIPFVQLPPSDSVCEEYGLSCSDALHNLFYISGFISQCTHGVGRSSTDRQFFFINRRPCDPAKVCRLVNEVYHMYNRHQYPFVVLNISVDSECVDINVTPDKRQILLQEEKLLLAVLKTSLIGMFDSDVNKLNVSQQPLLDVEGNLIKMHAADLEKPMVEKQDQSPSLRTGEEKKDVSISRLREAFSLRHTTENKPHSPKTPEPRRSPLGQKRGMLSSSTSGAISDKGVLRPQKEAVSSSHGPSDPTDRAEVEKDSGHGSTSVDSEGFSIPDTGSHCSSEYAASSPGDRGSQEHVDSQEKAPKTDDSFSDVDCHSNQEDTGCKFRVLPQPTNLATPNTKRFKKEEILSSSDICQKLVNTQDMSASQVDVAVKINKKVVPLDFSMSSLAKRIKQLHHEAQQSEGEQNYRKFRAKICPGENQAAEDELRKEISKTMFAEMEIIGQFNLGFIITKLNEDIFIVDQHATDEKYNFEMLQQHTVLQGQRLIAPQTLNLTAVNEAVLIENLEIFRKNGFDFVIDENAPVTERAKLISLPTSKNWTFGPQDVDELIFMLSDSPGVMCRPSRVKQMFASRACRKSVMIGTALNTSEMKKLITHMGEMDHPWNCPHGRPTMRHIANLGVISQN
UniProt P49711: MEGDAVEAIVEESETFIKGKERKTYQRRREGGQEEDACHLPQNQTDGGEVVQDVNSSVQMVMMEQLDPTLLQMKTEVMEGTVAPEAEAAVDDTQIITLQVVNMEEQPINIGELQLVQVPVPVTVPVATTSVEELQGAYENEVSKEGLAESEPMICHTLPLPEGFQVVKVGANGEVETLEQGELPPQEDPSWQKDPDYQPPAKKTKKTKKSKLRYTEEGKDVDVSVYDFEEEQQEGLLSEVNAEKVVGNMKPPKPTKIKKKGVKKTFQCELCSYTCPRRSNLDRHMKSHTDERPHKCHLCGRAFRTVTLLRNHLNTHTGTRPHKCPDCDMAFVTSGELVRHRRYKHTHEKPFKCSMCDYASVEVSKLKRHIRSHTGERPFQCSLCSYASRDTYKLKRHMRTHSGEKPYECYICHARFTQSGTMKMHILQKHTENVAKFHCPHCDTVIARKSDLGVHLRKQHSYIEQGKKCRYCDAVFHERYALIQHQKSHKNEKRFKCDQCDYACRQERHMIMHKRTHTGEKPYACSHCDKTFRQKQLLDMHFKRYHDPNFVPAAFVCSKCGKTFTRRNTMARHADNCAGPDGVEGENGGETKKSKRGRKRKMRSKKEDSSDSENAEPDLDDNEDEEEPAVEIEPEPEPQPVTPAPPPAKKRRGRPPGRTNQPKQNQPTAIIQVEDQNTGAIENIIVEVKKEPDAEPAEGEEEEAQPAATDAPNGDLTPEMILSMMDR

Row | Target | log2 fold change
1 | NES (peptide sequence: WDPTGEQRPPPQGETGK, peptide start residue: 1313) (UniProt P48681) | -0.232
2 | TAF6 (peptide sequence: LSNTVLPSESMK, peptide start residue: 9) (UniProt P49848) | 0.239
3 | CENPF (peptide sequence: LQLLSNEIMDKDR, peptide start residue: 739) (UniProt P49454) | -0.673
4 | PDLIM4 (peptide sequence: LYCESHAK, peptide start residue: 300) (UniProt P50479) | 0.169
5 | POLR2J (peptide sequence: VPNACLFTINKEDHTLGNIIK, peptide start residue: 27) (UniProt P52435) | 0.243
6 | PMS2 (peptide sequence: FKKEEILSSSDICQK, peptide start residue: 579) (UniProt P54278) | -0.327
7 | CTCF (peptide sequence: HADNCAGPDGVEGENGGETKK, peptide start residue: 573) (UniProt P49711) | -0.423

Given as a markdown table: part of the list above

| Row | Target | log2 fold change |
| --- | --- | --- |
| 1 | NES (peptide sequence: WDPTGEQRPPPQGETGK, peptide start residue: 1313) (UniProt P48681) | -0.232 |
| 7 | CTCF (peptide sequence: HADNCAGPDGVEGENGGETKK, peptide start residue: 573) (UniProt P49711) | -0.423 |

Reference: the supplement of paper PMC12819154, “High-throughput peptide-centric local stability assay extends protein–ligand identification to membrane proteins, tissues and bacteria” (Nature Structural & Molecular Biology, 2025)
